Results reported in article PMC4682171.
Residue numbers refer to the chain shown, from its start. Names may count otherwise. Results are given in words; binding and its absence hold for the method and conditions named. Binding seen in cells or lysates may run through a third protein. Binding can be weak; no strength is given. For some of these results: Sequences can lack the tags named with a protein. One block for each molecule: values may come before it.

Protein sequences, listed by entry. Tags and fused reporters are not part of them.
UniProt P63208: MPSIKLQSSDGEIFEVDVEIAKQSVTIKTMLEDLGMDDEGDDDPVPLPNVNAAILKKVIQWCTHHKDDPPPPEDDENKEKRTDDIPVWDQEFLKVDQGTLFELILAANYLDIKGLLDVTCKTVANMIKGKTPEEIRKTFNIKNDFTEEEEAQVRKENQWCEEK
UniProt Q13616: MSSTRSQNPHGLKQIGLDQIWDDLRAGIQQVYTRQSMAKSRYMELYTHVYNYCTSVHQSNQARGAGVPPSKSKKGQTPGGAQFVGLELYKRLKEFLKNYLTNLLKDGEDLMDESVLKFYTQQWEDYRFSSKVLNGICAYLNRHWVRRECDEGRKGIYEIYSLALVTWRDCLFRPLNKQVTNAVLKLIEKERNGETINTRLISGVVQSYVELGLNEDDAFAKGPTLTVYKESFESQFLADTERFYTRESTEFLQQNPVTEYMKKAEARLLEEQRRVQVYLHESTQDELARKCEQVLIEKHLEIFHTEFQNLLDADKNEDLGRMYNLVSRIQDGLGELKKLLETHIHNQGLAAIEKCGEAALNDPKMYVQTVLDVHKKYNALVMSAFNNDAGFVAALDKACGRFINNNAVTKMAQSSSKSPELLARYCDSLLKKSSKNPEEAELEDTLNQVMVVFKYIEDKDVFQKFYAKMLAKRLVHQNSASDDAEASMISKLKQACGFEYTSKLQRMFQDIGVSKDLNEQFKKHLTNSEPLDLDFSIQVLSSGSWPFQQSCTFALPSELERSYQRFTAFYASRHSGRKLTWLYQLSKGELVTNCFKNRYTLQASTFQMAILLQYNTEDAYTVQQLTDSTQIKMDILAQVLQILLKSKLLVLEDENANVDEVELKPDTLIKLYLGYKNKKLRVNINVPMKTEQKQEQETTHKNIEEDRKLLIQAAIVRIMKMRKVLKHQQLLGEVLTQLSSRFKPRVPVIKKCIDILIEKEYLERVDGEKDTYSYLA

Tests used:
HA-Set8 = target: T1, HA-Set8 (UniProt Q9NQR1); assay: co-IP; lysates of transfected HeLa or 293 T cells in EBC buffer (50 mM Tris pH 8.0, 120 mM NaCl, 0.5% NP-40); 800 μg lysate with 1-2 μg antibody overnight at 4 °C, carrier beads 1 h, washes in NETN buffer, immunoblot; in some panels cells were treated with D4476 or UVC
T1 sequence: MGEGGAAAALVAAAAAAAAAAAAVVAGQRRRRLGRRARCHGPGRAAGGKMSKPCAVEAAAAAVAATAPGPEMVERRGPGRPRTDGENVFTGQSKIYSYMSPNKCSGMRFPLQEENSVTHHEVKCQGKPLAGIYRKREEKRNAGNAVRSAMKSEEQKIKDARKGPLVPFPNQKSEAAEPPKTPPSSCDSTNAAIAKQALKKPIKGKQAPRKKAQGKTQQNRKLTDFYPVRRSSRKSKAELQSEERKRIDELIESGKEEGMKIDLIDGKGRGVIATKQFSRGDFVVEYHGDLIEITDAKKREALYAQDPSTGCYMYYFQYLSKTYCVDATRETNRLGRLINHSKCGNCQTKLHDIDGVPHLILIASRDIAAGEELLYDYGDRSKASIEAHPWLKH

Myc-Skp1 = Myc-Skp1 (UniProt P63208); assay: as above
Myc-Cullin 1 = Myc-Cullin 1 (UniProt Q13616); assay: as above
GST-β-TRCP1 = assay: pull-down; GST pull-down from HeLa cells transfected with HA-Set8 and the indicated GST-F-box proteins; immunoblot
Myc-β-TRCP1 = assay: co-IP; lysates of transfected HeLa or 293 T cells in EBC buffer (50 mM Tris pH 8.0, 120 mM NaCl, 0.5% NP-40); 800 μg lysate with 1-2 μg antibody overnight at 4 °C, carrier beads 1 h, washes in NETN buffer, immunoblot; in some panels cells were treated with D4476 or UVC
Flag-β-TRCP1 = assay: as above
Flag-β-TRCP1-R474A = assay: as above
HA-β-TRCP1 = assay: as above

binding (HA-Set8): binds
Molecule: endogenous β-TRCP1 (human (endogenous in HeLa))

binding (Myc-Skp1): binds
binding (Myc-Cullin 1): binds
Molecule: Flag-Set8^ΔPIP (from UniProt Q9NQR1)

binding (GST-β-TRCP1): binds
binding (Myc-β-TRCP1): binds
binding (Flag-β-TRCP1): binds
binding (Flag-β-TRCP1-R474A): binds
B1: HA-Set8 (protein, UniProt Q9NQR1 1-393)
chain: T1 sequence

binding (Flag-β-TRCP1): no binding
B2: HA-S253A-Set8 (protein, UniProt Q9NQR1 1-393)
chain: T1 sequence with S253A

binding (HA-β-TRCP1): no binding
B3: Flag-Set8^S253A (protein, UniProt Q9NQR1 1-393)
chain: T1 sequence with S253A

binding (HA-β-TRCP1): binds
B4: Flag-Set8 (protein, UniProt Q9NQR1 1-393)
chain: T1 sequence
